Values from PubChem BioAssay AID1259254 (NCATS, 2017).
Assay: 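Genome-wide screen for genes that prevent DNA re-replication in cancer cells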 (primary screen). Cells: human HCT116 colorectal cancer cells. Knock-down reagent: single siRNA against human genes. Duration: 3 days. Measured: 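Imaged Hoechst DNA stain sorts each cell into a cycle phase by DNA amount; per plate, G2 fraction set to 0% for non-targeting and 100% for GMNN siRNA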. Direction: G2 robust z-score and G2 cells, % of GMNN control: higher = more G2 cells, more excess DNA replication; raw share of cells in G2: higher = larger share of cells with G2 DNA content. Active means: 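An siRNA counts as active if its G2 robust z-score lies at least 5 MADs above the screen median; here such calls match roughly 38% of GMNN control or more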.
Shown is a random part of about 59,000 deposited reagents. In the full data, about 1,550 (2.6%) were called active. 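G2 share is only a proxy for re-replication; each gene was hit by three separate siRNAs, and active genes were retested.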 Raw values are not corrected between plates. A number with no mark means an inactive call. The numbers tell different reagents against one gene apart. Not given: the amount of reagent.

no.	Target gene	reagent	G2 robust z-score	G2 cells, % of GMNN control	raw share of cells in G2 (%)
1	POP4	1	-0.0709	2.47	4.64
2	POP4	2	-0.725	-2.13	4.77
3	POP4	3	-0.972	-3.87	4.95
4	TMEM51	1	-0.18	1.7	5.18
5	TMEM51	2	1.13	10.9	8.67
6	TMEM51	3	-0.316	0.743	3.37
7	SNX21	1	-0.67	-1.75	3.34
8	SNX21	2	-0.0408	2.68	3.84
9	SNX21	3	0.607	7.24	5.22
10	BTBD8	1	0.421	5.93	5.8
11	BTBD8	2	-0.687	-1.87	2.32
12	BTBD8	3	-0.85	-3.01	2.35
13	WDR88	1	-0.963	-3.8	2.74
14	WDR88	2	0.564	6.94	5.3
15	WDR88	3	-0.579	-1.11	2.18
16	MROH8	1	0.0206	3.11	5.35
17	MROH8	2	-0.257	1.16	3.47
18	MROH8	3	5.54 (active)	41.9	17.8
19	STMN1	1	-0.491	-0.484	4.77
20	STMN1	2	-0.0407	2.68	5.28
21	STMN1	3	0.35	5.43	5.32
22	SYT4	1	-0.692	-1.9	2.7
23	SYT4	2	0.022	3.12	6.31
24	SYT4	3	0.0362	3.22	4.28
25	AQP12A	1	-0.359	0.439	3.6
26	AQP12A	2	-0.56	-0.972	4.22
27	AQP12A	3	-0.175	1.74	4.37
28	SLC25A31	1	3.67	28.8	14.6
29	SLC25A31	2	6.46 (active)	48.5	25.6
30	SLC25A31	3	0.74	8.18	7.81
31	PLCB4	1	-1.18	-5.33	3.06
32	PLCB4	2	-0.246	1.24	4.68
33	PLCB4	3	2.06	17.4	8.75
34	SGMS1	1	-0.0756	2.44	3.93
35	SGMS1	2	0.264	4.83	4.84
36	SGMS1	3	-0.225	1.38	4.01
37	CAPN5	1	1.29	12.1	9.77
38	CAPN5	2	2.59	21.2	12.4
39	CAPN5	3	-0.409	0.087	3.94
40	FADS1	1	2.95	23.7	11
41	FADS1	2	-0.622	-1.41	4.81
42	FADS1	3	-0.0707	2.47	6.45
43	FAM174A	1	1.59	14.2	9.89
44	FAM174A	2	-0.264	1.11	4.37
45	FAM174A	3	0.178	4.22	5.1

4 entries already listed, ordered by “G2 cells, % of GMNN control”, descending:
Target gene	reagent	G2 robust z-score	G2 cells, % of GMNN control	raw share of cells in G2 (%)
FADS1	1	2.95	23.7	11
FAM174A	1	1.59	14.2	9.89
FADS1	3	-0.0707	2.47	6.45
FADS1	2	-0.622	-1.41	4.81

Continued:
no.	Target gene	reagent	G2 robust z-score	G2 cells, % of GMNN control	raw share of cells in G2 (%)
46	SPINK9	1	0.468	6.26	7.4
47	SPINK9	2	-0.276	1.03	4.66
48	SPINK9	3	-0.636	-1.51	5.25
49	CXCL17	1	0.368	5.56	5.67
50	CXCL17	2	1.03	10.2	6.98
51	CXCL17	3	-0.999	-4.06	2.03
52	HEATR4	1	-0.168	1.78	4.46
53	HEATR4	2	-0.928	-3.56	2.1
54	HEATR4	3	1.96	16.7	11.7
55	FMNL2	1	4.11	31.9	16.5
56	FMNL2	2	1.02	10.2	9.32
57	FMNL2	3	2.19	18.4	14.2
58	CCDC12	1	3.36	26.6	12.8
59	CCDC12	2	-0.979	-3.92	1.7
60	CCDC12	3	0.725	8.07	5.88
61	ABCD4	1	0.639	7.47	6.63
62	ABCD4	2	-0.905	-3.4	3.38
63	ABCD4	3	1.66	14.6	10
64	PHEX	1	0.555	6.87	6.37
65	PHEX	2	-0.582	-1.13	3.16
66	PHEX	3	2.75	22.3	12
67	KCNB1	1	-0.72	-2.1	4.52
68	KCNB1	2	0.749	8.24	7.57
69	KCNB1	3	0.246	4.7	6.21
